Data published in publication PMC2265536.
Results are given in words; binding and its absence hold for the method and conditions named. Binding seen in cells or lysates may run through a third protein. Binding can be weak; no strength is given.

Target: Drosophila Rsf-1 (D. melanogaster (endogenous in embryos))
Test: co-IP; Drosophila embryonic nuclear extracts (about 200 ug protein); antibodies coupled to Protein-G Agarose; 20 mM Tris-HCl pH 7.9, 0.5 mM EDTA, 150 mM NaCl, 10% glycerol, 3 h at 4 C; washes with 0.01% NP-40; western blot; dRsf-1/ISWI also with 80 ug/ml ethidium bromide

Row | binding | Binder
1 | binds | E(Pc) (protein, UniProt Q9VDC6 1-879) MGSLPQLSIVKGLQQDFVPRALHRIFEEQQLRHADKVALIYQPSTTGQGMAPSQSSYRQMNERANRAARLLVAETHGRFLQPNSDGDFIVAVCMQPSEGLVTTLLAIWKAGGAYLPIDPSFPANRIHHILLEAKPTLVIRDDDIDAGRFQGTPTLSTTELYAKSLQLAGSNLLSEEMLRGGNDHIAIVLYTSGSTGVPKGVRLPHESILNRLQWQWATFPYTANEAVSVFKTALTFVDSIAELWGPLMCGLAILVVPKAVTKDPQRLVALLERYKIRRLVLVPTLLRSLLMYLKMEGGGAAQKLLYNLQIWVCSGEPLSVSLASSFFDYFDEGVHRLYNFYGSTEVLGDVTYFACESKKQLSLYDNVPIGIPLSNTVVYLLDADYRPVKNGEIGEIFASGLNLAAGYVNGRDPERFLENPLAVEKKYARLYRTGDYGSLKNGSIMYEGRTDSQVKIRGHRVDLSEVEKNVAELPLVDKAIVLCYHAGQVDQAILAFVKLRDDAPMVTEMQMEARLKDKLADYMTPQVVILEHVPLLVNGKVDRQALLKTYETANNNEGDSSIVLDFDYSQVPEDLKLTARDLFETVGGVIGRSTRATLAPHSNFYELGGNSLNSIFTVTLLREKGYNIGISEFIAAKNLGEIIEKMAANHDAVQLEEESLNACPHLKMEAVPLRLEHRQEVIDIIVASFYNKADLEQWLKPGVLRTDYSDILNDIWNVLVERDLSFVVYDTNTDRIIGTALNFDARNEPEVDIKSKLLIVFEFLEFCEGPIRDNYLPKGLNQILHSFMMGTAEKLNPRENIACMHFMEHEVLRVAREKQFAGIFTTNTSPLTQQLADVYHYKTLLNFQVNEYVHSDGSRPFGDAPDEQRAIVHWKEVGK
2 | binds | dMRG15 (protein, UniProt Q9Y0I1 1-424) MGEVKPAKVENYSTGTDANTLFVDGERVLCFHGPLIYEAKVLKTKPDATPVEYYIHYAGWSKNWDEWVPENRVLKYNDDNVKRRQELARQCGERSKKDNKKGSAKAKKMEQMRNESRASTPSKDSNTSQSTASSTPTTSAGPGSKSEAGSTGTTTTNSTANSTTSRAHRKSTQSTPSTARPGTPSDKKEDPAAAETTEEEGPVAPKKKRMSEQRPSLTGSDVAEKPLPPTTTPSTPTTEPAPCVESEEAYAAKVEVKIKIPDELKHYLTDDWYAVVREHKLLELPAKVTVQQISEQYLAHKKSVKSTSASKEVAINDVLDGIVEYFNVMLGSQLLYKFERTQYADVMQKHPDTPLSELYGSFHLLRLFVRLGSMLSYSALDQQSMQNLLTHVQDFLKFLVKNSSIFFSMSNFINVDPEYVRNAQ
